Data published in article PMC7554872.
Results are given in words; binding and its absence hold for the method and conditions named. Binding seen in cells or lysates may run through a third protein. Some results given as binding are weak or reduced against the parent protein; the word gives no strength. Values belong to the molecule of their own block, whether it stands above or below them.

The chains behind the UniProt entries cited, without tags or fusion partners.
UniProt Q9EPW1: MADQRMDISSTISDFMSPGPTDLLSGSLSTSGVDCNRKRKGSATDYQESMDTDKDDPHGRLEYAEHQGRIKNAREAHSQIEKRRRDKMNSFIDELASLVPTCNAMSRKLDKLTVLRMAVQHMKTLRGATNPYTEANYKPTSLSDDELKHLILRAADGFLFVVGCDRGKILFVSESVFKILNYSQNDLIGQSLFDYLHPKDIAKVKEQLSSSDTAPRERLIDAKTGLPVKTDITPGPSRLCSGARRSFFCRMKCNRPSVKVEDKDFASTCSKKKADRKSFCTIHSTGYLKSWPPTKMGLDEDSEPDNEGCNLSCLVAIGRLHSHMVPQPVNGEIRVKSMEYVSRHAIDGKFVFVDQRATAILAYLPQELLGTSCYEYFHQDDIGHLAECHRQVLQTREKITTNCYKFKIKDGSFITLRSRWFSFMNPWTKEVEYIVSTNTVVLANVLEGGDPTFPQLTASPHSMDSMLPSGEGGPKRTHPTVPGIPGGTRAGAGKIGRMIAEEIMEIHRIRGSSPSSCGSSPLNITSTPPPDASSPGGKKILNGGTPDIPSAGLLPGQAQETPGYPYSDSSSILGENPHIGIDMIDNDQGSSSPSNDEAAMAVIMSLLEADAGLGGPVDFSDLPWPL
UniProt P09456: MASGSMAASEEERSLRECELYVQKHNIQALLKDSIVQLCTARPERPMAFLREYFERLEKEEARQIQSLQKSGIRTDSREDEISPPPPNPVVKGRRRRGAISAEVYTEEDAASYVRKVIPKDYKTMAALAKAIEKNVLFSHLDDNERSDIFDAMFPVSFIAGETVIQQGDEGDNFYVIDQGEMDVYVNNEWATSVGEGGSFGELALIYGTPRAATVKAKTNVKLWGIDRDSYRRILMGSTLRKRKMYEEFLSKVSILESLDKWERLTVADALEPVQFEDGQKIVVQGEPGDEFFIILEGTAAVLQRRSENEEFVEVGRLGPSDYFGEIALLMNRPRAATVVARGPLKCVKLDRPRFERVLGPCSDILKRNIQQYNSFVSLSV
UniProt P24587: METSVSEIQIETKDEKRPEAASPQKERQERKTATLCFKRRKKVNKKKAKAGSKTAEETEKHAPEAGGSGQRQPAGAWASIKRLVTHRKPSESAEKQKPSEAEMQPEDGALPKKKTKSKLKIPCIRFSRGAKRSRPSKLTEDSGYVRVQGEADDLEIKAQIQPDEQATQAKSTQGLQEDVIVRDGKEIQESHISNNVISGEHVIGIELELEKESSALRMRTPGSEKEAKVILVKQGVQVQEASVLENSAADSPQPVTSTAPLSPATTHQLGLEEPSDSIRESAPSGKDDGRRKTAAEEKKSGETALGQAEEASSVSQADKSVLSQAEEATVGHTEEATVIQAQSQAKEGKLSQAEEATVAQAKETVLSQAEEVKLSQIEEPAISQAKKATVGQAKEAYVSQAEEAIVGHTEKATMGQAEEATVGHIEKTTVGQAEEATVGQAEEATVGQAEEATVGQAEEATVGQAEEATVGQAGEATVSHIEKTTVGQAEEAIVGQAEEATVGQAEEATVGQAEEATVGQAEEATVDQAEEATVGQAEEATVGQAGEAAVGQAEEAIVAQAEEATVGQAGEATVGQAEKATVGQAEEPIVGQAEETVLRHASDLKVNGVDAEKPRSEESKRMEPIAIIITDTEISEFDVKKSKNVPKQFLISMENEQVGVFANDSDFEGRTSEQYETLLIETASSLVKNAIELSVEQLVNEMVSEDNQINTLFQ
UniProt P12368: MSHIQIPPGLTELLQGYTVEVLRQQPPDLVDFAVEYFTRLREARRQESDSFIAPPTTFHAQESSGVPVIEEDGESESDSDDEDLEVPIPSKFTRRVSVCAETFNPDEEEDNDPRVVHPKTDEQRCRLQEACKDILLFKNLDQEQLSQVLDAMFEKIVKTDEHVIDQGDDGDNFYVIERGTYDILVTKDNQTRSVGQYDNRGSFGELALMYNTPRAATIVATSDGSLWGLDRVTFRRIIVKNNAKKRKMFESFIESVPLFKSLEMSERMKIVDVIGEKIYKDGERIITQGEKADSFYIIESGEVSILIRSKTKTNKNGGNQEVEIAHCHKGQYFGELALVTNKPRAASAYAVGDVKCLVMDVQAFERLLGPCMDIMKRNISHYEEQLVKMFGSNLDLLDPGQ
UniProt P12369: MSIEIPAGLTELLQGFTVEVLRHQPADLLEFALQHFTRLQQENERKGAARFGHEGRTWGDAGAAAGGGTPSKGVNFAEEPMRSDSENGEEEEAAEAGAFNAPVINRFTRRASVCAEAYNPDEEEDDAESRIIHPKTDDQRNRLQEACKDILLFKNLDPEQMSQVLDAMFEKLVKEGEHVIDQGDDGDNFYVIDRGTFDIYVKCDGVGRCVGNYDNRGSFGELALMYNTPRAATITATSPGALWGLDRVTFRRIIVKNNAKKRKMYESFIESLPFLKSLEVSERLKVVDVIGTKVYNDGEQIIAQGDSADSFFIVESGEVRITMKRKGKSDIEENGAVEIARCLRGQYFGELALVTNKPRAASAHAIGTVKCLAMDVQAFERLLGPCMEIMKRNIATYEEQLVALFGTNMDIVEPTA

Target: Brain and muscle Arnt-like (BMAL)1 protein (rat (endogenous in primary adipocytes of Wistar rats)) (UniProt Q9EPW1)
Assay: co-IP; lysate (1 mg/mL protein) of primary adipocytes from epididymal adipose tissue of E-SED, L-SED, E-EX and L-EX rats incubated with antibodies against BMAL1; immunocomplexes recovered on Dynabeads Protein G; blots with antibodies against each partner

binding: binds
Molecule: regulatory subunit RIα of PKA (from UniProt P09456 1-381)

binding: binds
B1: Perilipin1 (protein, UniProt P43884 1-517)
chain: MSMNKGPTLLDGDLPEQENVLQRVLQLPVVSGTCECFQKTYNSTKEAHPLVASVCNAYEKGVQGASNLAAWSMEPVVRRLSTQFTAANELACRGLDHLEEKIPALQYPPEKIASELKGTISTRLRSARNSISVPIASTSDKVLGATLAGCELALGMAKETAEYAANTRVGRLASGGADLALGSIEKVVEYLLPPDKVESAPSSGRQKTQKAPKAKPSLLRRVSTLANTLSRHTMQTTARALKRGHSLAMWIPGVAPLSSLAQWGASAAMQVVSRRQSEVRVPWLHNLAASKDENHEDQTDTEGEETDEEEEEEESEAEENVLREVTALPTPLGFLGGVVHTVQKTLQNTISAVTWAPAAVLGTVGRILHLTPAQAVSSTKGRAMSLSDALKGVTDNVVDTVVHYVPLPRLSLMEPESEFQDIDNPPAEVERKGSGSRPASPESTARPGQPRAACAVRGLSAPSCPDLDDKTETSARPGLLAMPREKPARRVSDSFFRPSVMEPILGRTQYSQLRKKS

binding: binds
B2: adipose tissue triacylglycerol lipase (enzyme, UniProt P0C548 1-478)
chain: MFPRETKWNISFAGCGFLGVYHIGVASCLREHAPFLVANATHIYGASAGALTATALVTGACLGEAGANIIEVSKEARKRFLGPLHPSFNLVKTIRGCLLKTLPADCHTRASGRLGISLTRVSDGENVIISHFSSKDELIQANVCSTFIPVYCGLIPPTLQGVRYVDGGISDNLPLYELKNTITVSPFSGESDICPQDSSTNIHELRITNTSIQFNLRNLYRLSKALFPPEPMVLREMCKQGYRDGLRFLRRNGLLNQPNPLLALPPVVPQEEDAEEAAVTEERTGGEDRILEHLPARLNEALLEACVEPKDLMTTLSNMLPVRLATAMMVPYTLPLESAVSFTIRLLEWLPDVPEDIRWMKEQTGSICQYLVMRAKRKLGDHLPSRLSEQVELRRAQSLPSVPLSCATYSEALPNWVRNNLSLGDALAKWEECQRQLLLGLFCTNVAFPPDALRMRAPASPTATDPATPQDPSGLPPC

Further lines, the molecule ahead of its results:

Molecule: protein kinase A (PKA)-anchoring protein 150 (from UniProt P24587 1-714)
binding: binds

Molecule: regulatory subunit RIIα of PKA (from UniProt P12368 1-401)
binding: binds

Molecule: regulatory subunit RIIβ of PKA (from UniProt P12369 1-416)
binding: binds
